This passage reports binding results from patent US20210230295A1.

Protein sequences, listed by entry. Tags and fused reporters are not part of them. Residues count along the entry.
UniProt P30530, residues 26-449: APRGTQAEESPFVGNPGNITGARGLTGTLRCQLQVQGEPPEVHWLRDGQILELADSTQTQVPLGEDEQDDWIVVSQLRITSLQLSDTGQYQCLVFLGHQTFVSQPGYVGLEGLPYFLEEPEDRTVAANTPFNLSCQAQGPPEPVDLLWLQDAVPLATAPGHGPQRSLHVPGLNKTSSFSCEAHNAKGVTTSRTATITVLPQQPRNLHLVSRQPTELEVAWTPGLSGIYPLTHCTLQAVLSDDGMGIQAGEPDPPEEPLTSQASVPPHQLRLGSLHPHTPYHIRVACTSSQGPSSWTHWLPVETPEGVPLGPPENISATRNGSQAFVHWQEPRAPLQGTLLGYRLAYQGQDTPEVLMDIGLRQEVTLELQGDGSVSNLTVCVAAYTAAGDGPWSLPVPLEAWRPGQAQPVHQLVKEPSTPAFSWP

No constants are given. Whether binding was seen depends on the method and setting. Some binding calls cover weakened binding; strength is not graded here.

This experiment has as its target AXL (ACRO Biosystems) (UniProt P30530). The experiment can be described thus: ELISA, AXL (ACRO Biosystems) coated at 1 ug/ml. On the technique in general: In an ELISA, binding on a coated surface is turned into a signal by an enzyme label.

B1: C6G12 antibody (Chimeric 6G12) (antibody, human IgG1, kappa, V domains shown)
VH: QVQLKQSGPGLVKPSQSLSLTCSVTGFSISSGYYWNWIRQFPGNKLEWMGYRSYDGSNNYNPSLKNRISITRDTSKNQFFLKLNSVTTEDTATYYCARGWLLHYTMDYWGQGTSVTVSS
VL: ELVMTQSPFSNAVTLGTSASISCRSSRSLLHSNGFTYLYWYLQKPGQSPQLLIYQMSNLASGVPDRFSSSGSGTDFTLRISRVEAEDVGVYYCGQNLELPLTFGAGTKLELKR
Take B1: the binding result is given as “binds”.
